Assay results from PMC11047546.
No constants are given. Whether binding was seen depends on the method and setting. Binding seen in cells or lysates may run through a third protein. Some results given as binding are weak or reduced against the parent protein; the word gives no strength.

Sequences of proteins named here, by UniProt entry; tags and fusion partners are left off. A change or cut given only in a name is not applied to a line headed by its entry.
UniProt P57790: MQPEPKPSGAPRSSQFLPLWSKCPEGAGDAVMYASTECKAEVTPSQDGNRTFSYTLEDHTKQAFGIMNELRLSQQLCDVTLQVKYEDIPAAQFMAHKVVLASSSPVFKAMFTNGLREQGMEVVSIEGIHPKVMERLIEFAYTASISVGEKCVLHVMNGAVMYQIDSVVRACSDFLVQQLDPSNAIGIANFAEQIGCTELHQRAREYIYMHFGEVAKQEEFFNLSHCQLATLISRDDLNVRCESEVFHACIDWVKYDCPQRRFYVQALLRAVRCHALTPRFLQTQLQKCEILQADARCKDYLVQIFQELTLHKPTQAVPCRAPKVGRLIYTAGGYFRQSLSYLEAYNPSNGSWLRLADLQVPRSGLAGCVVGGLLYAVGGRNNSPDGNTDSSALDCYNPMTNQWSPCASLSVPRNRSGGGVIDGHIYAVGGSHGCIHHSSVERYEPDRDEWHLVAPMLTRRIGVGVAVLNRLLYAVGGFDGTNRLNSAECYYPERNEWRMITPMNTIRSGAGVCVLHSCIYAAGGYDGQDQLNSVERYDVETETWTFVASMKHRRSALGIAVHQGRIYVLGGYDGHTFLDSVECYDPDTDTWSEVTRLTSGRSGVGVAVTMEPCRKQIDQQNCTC

Assays:
[1] = target: full-length rat Keap1, wild type, 3×Flag-tagged (Keap1-WT) (rat) (UniProt P57790); test: co-IP; RINm5F cells transfected with 3×Flag-Keap1 WT or cysteine mutants, OsG with or without GSH; NP40 lysis buffer; lysate incubated with anti-Flag antibody overnight at 4 °C, protein G magnetic beads; blot with anti-Nrf2
[2] = target: full-length rat Keap1 C288A, 3×Flag-tagged (rat) (UniProt P57790); test: as above
[3] = target: full-length rat Keap1 C273A, 3×Flag-tagged (rat) (UniProt P57790); test: as above
[4] = target: Kelch-like ECH-associated protein 1 (Keap1), endogenous in RINm5F cells (rat (endogenous in RIN-m5F)) (UniProt P57790); test: co-IP; RINm5F cells cultured in NG, OsG or OsG + GSH (13 mmol/L) for 6 days; NP40 lysis buffer; lysate incubated with anti-Keap1 antibody (or IgG, negative control) overnight at 4 °C, protein G magnetic beads; blot with anti-Nrf2 and anti-Keap1

binding [1]: binds | binding [2]: binds | binding [3]: binds | binding [4]: binds
B1: nuclear factor erythroid 2-related factor 2 (Nrf2), endogenous in RINm5F cells (protein, UniProt O54968-1 1-604)
chain: MMDLELPPPGLQSQQDMDLIDILWRQDIDLGVSREVFDFSQRQKDYELEKQKKLEKERQEQLQKEQEKAFFAQLQLDEETGEFLPIQPAQHIQTDTSGSVSYSQVAHIPKQDALYFEDCMQLLAETFPFVDDHEVSSPTFQSLALDIPSHVESSVFTTPDQAQSLDSSLETAMTDLSSIQQDMEQVWQELFSIPELQCLNTENKQQAETTTVPSPEATLTEMDSNYHFYSSIPSLEKEVDSCSPHFLHGFEDSFSSILSTDDASQLNSLDSNPTLNTDFGDEFYSAFLAEPSGGGSMPSSAAISQSLSELLGGPIEGCDLSLCKAFNQKHTEGTVEFNDSDSGISLNTSPSRASPEHSVESSIYGDPPPGFSDSEMEELDSAPGSVKQNGPKAQPTHSSGDTVQPLSPAQGHSAAVHESQCENTTKKEVPVSPGHQKVPFTKDKHSSRLEAHLTRDELRAKALHIPFPVEKIINLPVDDFNEMMSKEQFNEAQLALIRDIRRRGKNKVAAQNCRKRKLENIVELEQDLGHLKDEREKLLREKGENDRNLHLLKRKLSTLYLEVFSMLRDEDGKPYSPSEYSLQQTRDGNVFLVPKSKKPDTKKN
